In patent US9381260B2, “Hypoxia inducible factor-1 pathway inhibitors and uses as anticancer and imaging agents” (EMORY UNIVERSITY, priority 2011, dated 2016):

These compounds were tested on HIF-1 transcriptional activity (assay: HIF-inducible luciferase reporter assay in LN229-V6R cells under hypoxia). Conditions: rank among 13 compounds, 1 = lowest remaining activity.
Type: cell-based, human
Protocol: Results are plotted as percent of luciferase activity found in extracts of untreated cells used as controls. (A) Luciferase activity in extracts of LN229-V6R cells, which contain a HIF-inducible luciferase reporter gene. The cells were grown under hypoxia to activate HIF. (B) Luciferase activity in extracts of LN229-Lux cells, which contain a constitutively expressed luciferase reporter gene. Results shown are from cells grown under normoxia; similar results were obtained under hypoxia.
The effects of the 12 heteroarylsulfonamides on HIF transcriptional activity under hypoxia were measured by determining the luciferase activity present in LN229-V6R cells, which contain a stably integrated hypoxia/HIF inducible luciferase reporter gene. As a control for the absence of inhibition on luciferase enzyme per se, we also tested 1 and five heteroarylsulfonamides in LN229-Lux cells that contain a constitutive luciferase reporter gene driven by a retroviral LTR promoter. An Hsp90 inhibitor, 17-DMAG, and 1 were used as positive controls. […] The heteroarylsulfonamides decreased HIF-1 activity in a dose-dependent fashion with IC50 values below (6a, 6b, 6d-6f, 6h, 6i, 6l) or close to 5 μM (6c, 6g, 6j, 6k) (FIG. 2).

SMILES	remaining HIF-1 activity at 2.5 μM, rank
COc1ccc(S(=O)(=O)N(Cc2ccc3c(c2)C=CC(C)(C)O3)c2ccccc2)cc1OC [Compound 1, 3,4-Dimethoxy-N-[(2,2-dimethyl-2H-chromene-6-yl)methyl]-N-phenylbenzenesulfonamide, reference compound]	1
CC(C)N(Cc1ccc2c(c1)C=CC(C)(C)O2)S(=O)(=O)c1ccccn1 [Compound 6a, N-[(2,2-Dimethyl-2H-chromen-6-yl)methyl]-N-(propan-2-yl)pyridine-2-sulfonamide]	5
CC1(C)C=Cc2cc(CN(C3CC3)S(=O)(=O)c3ccccn3)ccc2O1 [Compound 6b, N-Cyclopropyl-N-[(2,2-dimethyl-2H-chromen-6-yl)methyl]pyridine-2-sulfonamide]	10
CC(C)CN(Cc1ccc2c(c1)C=CC(C)(C)O2)S(=O)(=O)c1ccccn1 [Compound 6c, N-[(2,2-Dimethyl-2H-chromen-6-yl)methyl]-N-(2-methylpropyl)pyridine-2-sulfonamide]	13
CC1(C)C=Cc2cc(CN(CC3CC3)S(=O)(=O)c3ccccn3)ccc2O1 [Compound 6d, N-(Cyclopropylmethyl)-N-[(2,2-dimethyl-2H-chromen-6-yl)methyl]pyridine-2-sulfonamide]	3
CC1(C)C=Cc2cc(CN(C3CCC3)S(=O)(=O)c3ccccn3)ccc2O1 [Compound 6e, N-(Cyclobutyl)-N-[(2,2-dimethyl-2H-chromen-6-yl)methyl]pyridine-2-sulfonamide]	4
CC1(C)C=Cc2cc(CN(C3CCCC3)S(=O)(=O)c3ccccn3)ccc2O1 [Compound 6f, N-(Cyclopentyl)-N-[(2,2-dimethyl-2H-chromen-6-yl)methyl]pyridine-2-sulfonamide]	7
COc1cc(CN(C(C)C)S(=O)(=O)c2ccccn2)cc2c1OC(C)(C)C=C2 [Compound 6g]	8
CC(C)CN(Cc1ccc2c(c1)C=CC(C)(C)O2)S(=O)(=O)c1ccncc1 [Compound 6i, N-[(2,2-Dimethyl-2H-chromen-6-yl)methyl]-N-(2-methylpropyl)pyridine-4-sulfonamide]	9
CC(C)CN(Cc1ccc2c(c1)C=CC(C)(C)O2)S(=O)(=O)c1nccn1C [Compound 6j, N-[(2,2-Dimethyl-2H-chromen-6-yl)methyl]-N-(2-methylpropyl)-1-methyl-1H-imidazole-2-sulfonamide]	11
CC(C)CN(Cc1ccc2c(c1)C=CC(C)(C)O2)S(=O)(=O)c1nccs1 [Compound 6k, N-[(2,2-Dimethyl-2H-chromen-6-yl)methyl]-N-(2-methylpropyl)-1,3-thiazole-2-sulfonamide]	12
